Here are results for one substance from PMC5333361.

Chains of the proteins cited; added tags and fusions are not shown.
UniProt P46937: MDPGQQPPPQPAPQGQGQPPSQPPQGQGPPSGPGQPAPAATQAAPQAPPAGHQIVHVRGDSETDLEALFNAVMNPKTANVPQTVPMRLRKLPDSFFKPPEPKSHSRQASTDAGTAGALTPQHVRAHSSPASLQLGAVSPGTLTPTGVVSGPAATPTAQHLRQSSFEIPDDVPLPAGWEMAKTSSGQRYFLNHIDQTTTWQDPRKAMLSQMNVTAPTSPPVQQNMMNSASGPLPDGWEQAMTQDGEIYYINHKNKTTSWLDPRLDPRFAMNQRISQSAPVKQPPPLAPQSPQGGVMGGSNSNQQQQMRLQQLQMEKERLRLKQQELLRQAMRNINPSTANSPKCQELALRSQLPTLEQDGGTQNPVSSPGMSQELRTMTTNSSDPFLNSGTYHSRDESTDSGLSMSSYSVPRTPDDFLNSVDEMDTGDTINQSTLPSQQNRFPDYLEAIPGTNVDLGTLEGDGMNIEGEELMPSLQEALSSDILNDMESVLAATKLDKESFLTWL

Results are given in words; binding and its absence hold for the method and conditions named. Binding seen in cells or lysates may run through a third protein. Some results given as binding are weak or reduced against the parent protein; the word gives no strength. Tags and fused reporters may be left off the sequences shown.

The target in this experiment is T1, Amotl1-HA (Angiomotin-like 1, HA-tagged) (UniProt Q9D4H4).
T1 sequence: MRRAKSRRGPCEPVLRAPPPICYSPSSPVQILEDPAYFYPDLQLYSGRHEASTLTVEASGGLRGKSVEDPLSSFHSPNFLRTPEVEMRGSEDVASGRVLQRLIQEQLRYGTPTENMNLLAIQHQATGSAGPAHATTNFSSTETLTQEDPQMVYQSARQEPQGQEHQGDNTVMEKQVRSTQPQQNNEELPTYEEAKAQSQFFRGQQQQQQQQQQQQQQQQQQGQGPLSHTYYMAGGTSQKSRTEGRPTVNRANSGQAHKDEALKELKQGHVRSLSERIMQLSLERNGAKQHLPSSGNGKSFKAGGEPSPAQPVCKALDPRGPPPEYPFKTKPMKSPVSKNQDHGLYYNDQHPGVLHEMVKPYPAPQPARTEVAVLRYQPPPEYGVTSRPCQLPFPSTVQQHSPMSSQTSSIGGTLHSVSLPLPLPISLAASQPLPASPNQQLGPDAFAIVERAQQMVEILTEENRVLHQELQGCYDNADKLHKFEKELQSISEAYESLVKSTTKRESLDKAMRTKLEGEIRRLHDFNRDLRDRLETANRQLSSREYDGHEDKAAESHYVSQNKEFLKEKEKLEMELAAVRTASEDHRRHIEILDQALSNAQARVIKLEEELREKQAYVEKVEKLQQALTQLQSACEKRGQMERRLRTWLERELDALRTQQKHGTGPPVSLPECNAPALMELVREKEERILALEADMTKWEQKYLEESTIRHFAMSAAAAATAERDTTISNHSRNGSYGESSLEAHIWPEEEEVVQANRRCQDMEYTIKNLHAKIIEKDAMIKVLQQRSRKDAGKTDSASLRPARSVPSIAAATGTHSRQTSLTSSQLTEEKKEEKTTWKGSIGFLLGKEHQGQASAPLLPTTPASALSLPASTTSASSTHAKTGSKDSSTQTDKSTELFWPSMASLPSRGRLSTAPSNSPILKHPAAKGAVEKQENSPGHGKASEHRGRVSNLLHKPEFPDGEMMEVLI
In words: co-IP; HEK293 cells transfected with Amotl1-HA and Flag-Fat4-ΔECD, cultured 48 h; lysis buffer 150 mM NaCl, 5 mM EDTA, 10 mM Tris pH 7.5, 10% glycerol, 1% NP-40; IP with anti-HA (Roche 3F10) on protein G magnetic beads; isotype IgG as negative control; immunoblot.

Regarding Yap1 (from UniProt P46937 1-504), the binding result was “binds”.
